Source: paper PMC6322271

Key:
Test in all cases: EMSA
Details in all cases: not given; protein translated in vitro; residues 1-268; label: 32P (T4 PNK)
[1] = biological target: T1, Slug8M K188R,K192R,K211R,K239R,K240R,K244R,K248R,K258R (human) (UniProt O43623)
T1 sequence (looked up): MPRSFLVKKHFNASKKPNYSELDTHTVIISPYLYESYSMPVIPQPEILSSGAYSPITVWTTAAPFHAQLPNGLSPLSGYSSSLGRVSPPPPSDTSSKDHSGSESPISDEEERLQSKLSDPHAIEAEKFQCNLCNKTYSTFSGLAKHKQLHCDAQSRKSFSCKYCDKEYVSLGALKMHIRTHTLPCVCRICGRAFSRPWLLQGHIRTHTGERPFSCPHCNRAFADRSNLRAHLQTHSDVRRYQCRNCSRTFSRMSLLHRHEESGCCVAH

Slug wild-type (human) = biological target: T2, Slug wild-type (human) (UniProt O43623)
T2 sequence (looked up): T1 sequence (looked up) with R188K, R192K, R211K, R239K, R240K, R244K, R248K, R258K

[2] = biological target: T3, Slug6M K188R,K239R,K240R,K244R,K248R,K258R (human) (UniProt O43623)
T3 sequence (looked up): T1 sequence (looked up) with R192K, R211K

CGTCGGAACTGCAAAGCACCTGTGAGCTTGCGGAAGTC (double strand) [E-box C probe]
binding result [1]: binds more weakly
binding result (Slug wild-type (human)): binds
binding result [2]: binds more weakly

Positions count from the first letter of the chain named. The exact form of at least one protein or probe is not confirmed. For part of these data: Weaker means in comparison with the reference protein, sequence or condition of that experiment. Tags and fusion partners may be left off the protein sequences shown. For part of these data: At least one verdict was read from the data and is not stated in words by the source.
